Library screen at single concentrations

Sequences of proteins named here, by UniProt entry; tags and fusion partners are left off. Residues count along the entry.
UniProt P9WFT3, whole entry: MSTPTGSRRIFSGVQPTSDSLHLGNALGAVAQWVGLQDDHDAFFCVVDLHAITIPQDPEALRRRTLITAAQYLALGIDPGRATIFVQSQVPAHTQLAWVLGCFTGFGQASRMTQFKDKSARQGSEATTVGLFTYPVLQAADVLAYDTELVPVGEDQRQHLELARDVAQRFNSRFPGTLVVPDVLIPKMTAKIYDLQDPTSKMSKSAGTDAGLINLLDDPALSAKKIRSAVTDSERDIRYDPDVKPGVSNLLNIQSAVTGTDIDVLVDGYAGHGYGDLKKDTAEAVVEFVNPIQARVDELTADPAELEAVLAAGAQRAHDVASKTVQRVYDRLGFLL
UniProt Q8IDJ8, 1-583: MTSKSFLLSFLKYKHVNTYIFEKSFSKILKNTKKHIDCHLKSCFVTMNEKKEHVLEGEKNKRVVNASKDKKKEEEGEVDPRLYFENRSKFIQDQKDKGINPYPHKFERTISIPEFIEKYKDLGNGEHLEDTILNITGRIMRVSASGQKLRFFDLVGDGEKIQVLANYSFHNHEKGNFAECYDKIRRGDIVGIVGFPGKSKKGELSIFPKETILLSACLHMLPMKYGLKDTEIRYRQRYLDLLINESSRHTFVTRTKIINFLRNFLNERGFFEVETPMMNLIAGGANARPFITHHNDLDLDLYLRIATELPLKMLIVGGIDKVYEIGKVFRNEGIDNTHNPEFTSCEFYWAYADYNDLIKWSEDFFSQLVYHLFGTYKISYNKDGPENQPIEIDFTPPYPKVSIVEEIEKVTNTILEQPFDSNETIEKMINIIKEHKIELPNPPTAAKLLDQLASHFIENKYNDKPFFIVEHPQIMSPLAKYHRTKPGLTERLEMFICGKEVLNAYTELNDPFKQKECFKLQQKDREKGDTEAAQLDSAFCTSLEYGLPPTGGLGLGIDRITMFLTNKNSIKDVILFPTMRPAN
UniProt P9WNZ1, whole entry: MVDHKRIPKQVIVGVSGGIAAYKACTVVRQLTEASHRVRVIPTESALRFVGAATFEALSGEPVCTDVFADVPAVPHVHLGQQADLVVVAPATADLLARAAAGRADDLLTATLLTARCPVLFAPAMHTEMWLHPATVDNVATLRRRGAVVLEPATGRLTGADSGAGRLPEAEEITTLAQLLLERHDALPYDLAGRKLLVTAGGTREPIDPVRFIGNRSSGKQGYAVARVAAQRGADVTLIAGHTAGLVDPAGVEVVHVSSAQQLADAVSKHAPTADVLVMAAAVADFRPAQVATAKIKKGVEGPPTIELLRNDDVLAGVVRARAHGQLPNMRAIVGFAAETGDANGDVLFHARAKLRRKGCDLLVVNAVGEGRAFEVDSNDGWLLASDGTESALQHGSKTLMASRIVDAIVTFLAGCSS
UniProt P9WPC5, whole entry: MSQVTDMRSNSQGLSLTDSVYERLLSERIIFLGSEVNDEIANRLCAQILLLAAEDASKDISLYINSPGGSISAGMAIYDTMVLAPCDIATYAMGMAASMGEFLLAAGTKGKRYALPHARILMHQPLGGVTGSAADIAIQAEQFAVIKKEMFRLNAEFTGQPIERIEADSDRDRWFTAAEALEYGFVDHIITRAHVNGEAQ
UniProt P9WPC3, whole entry partner: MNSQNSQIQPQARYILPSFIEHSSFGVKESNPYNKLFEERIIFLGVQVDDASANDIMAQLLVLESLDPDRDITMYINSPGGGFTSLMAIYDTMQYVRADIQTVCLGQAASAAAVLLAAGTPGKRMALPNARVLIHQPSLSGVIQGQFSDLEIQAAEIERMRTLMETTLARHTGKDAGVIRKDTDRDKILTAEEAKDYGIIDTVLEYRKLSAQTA
UniProt Q4DA54, 1-478: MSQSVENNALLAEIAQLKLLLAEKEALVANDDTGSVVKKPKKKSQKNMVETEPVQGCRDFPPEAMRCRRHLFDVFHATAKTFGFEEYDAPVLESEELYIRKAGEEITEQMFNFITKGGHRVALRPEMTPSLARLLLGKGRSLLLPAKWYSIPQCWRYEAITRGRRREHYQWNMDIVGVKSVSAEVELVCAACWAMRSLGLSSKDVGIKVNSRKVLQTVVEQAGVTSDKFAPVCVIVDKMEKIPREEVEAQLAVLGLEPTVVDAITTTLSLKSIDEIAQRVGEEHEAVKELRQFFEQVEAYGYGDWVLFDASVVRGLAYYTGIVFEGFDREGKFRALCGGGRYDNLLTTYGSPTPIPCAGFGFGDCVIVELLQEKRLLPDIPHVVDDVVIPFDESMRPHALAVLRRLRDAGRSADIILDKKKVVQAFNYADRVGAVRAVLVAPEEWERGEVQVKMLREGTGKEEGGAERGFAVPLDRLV

Source: ChEMBL document CHEMBL3988442, “University of Dundee, Small-Polar-MMV Screening Library” (2021).

MtTrpRS: 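Tryptophan-tRNA ligase, Mycobacterium tuberculosis (UniProt P9WFT3). Enzyme assay of tryptophanyl-tRNA synthetase; the read-out is not stated. Concentration: 10 µM. Higher most likely means stronger inhibition; the record gives no direction and few retests gave an IC50. About 65,000 compounds were tested under these conditions; 0.098% (about 64) showed 50% or more at least once.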
PfKRS1: 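Lysine-tRNA ligase, Plasmodium falciparum 3D7 (UniProt Q8IDJ8). Enzyme assay of the cytosolic lysyl-tRNA synthetase in 384-well plates, read by luminescence. Tested at 30 µM. Higher reads as stronger inhibition, judged from the few compounds that gave an IC50. Of about 69,000 compounds tested this way, about 49 (0.071%) reached 50% or more in at least one test.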
CoaBC: 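Coenzyme A biosynthesis protein CoaBC, Mycobacterium tuberculosis (UniProt P9WNZ1). Enzyme assay of CoaBC with a phosphate dye (Biomol Green) read at 650 nm. Concentration: 30 µM. Higher reads as stronger inhibition, judged from the few compounds that gave an IC50. Most strong results did not repeat in a second test. About 67,000 compounds were tested under these conditions; 0.06% (about 40) showed 50% or more at least once.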
ClpP1P2: 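ClpP1P2, Mycobacterium tuberculosis (UniProt P9WPC5 and UniProt P9WPC3). Protease assay of ClpP1P2, read by the AMC dye that it sets free. Concentration: 50 µM. Higher reads as stronger inhibition, judged from the few compounds that gave an IC50. Most other retested compounds had strongly negative values. Of about 69,000 compounds tested this way, about 10 (0.015%) reached 50% or more in at least one test.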
TcHisRS: 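Enzyme assay of histidyl-tRNA synthetase; the read-out is not stated. Target: Histidine-tRNA ligase, Trypanosoma cruzi CL Brener (UniProt Q4DA54). Tested at 30 µM. Higher reads as stronger inhibition (inferred: compounds with an IC50 in retests scored well above the rest). About 69,000 compounds were tested under these conditions; 0.045% (about 31) showed 50% or more at least once.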

Results are given as percent effect. The controls that fix the scale are not given in the record; negative values are as filed. The compounds are a random part of those screened. A dash means the value is not listed here; it may have been measured.

SMILES	MtTrpRS	PfKRS1	CoaBC	ClpP1P2	TcHisRS
CC(=O)NCCNC(=O)c1sccc1Br	-4.662%	5.055%	-7.097%	-5.594%	3.448%
O=C1CC(c2ccccc2)C2(CCN(Cc3ccncc3)CC2)N1 (configuration not stated)	-0.6975%	9.644%	-6.303%	3.025%	7.438%
O=C(CCN1CCOC(C(F)(F)F)C1)NCc1ccccc1Cl (configuration not stated)	9.779%	-1.137%	10.68%	-18.16%	-0.5405%
Cc1cc(N2CCOC(c3ccc(C(N)=O)cn3)C2)ncn1 (configuration not stated)	8.899%	2.92%	6.413%	6.86%	0.7692%
O=C(COc1cccnc1)N1CCCC(n2cccn2)C1 (configuration not stated)	1.383%	5.466%	3.24%	-20.59%	2.521%
CCCc1nnc(N2CCN(c3cccc(C)c3C)CC2)o1	0.5161%	4.576%	3.704%	1.102%	7.071%
CCc1cnc(CNc2ccc(C(=O)NCc3ccco3)cc2C)o1	-1.5%	5.029%	3.566%	-0.4699%	-4.04%
Cc1cc(C(=O)N(C)Cc2ccccc2OCC(C)C)cc(=O)[nH]1	3.307%	6.931%	0%	-19.24%	0%
CCc1nc(CN(C)Cc2nnc(-c3cccs3)o2)cs1	-1.283%	4.044%	0.4878%	-7.274%	2.941%
CCC(NC(=O)c1cnc(-c2cccnc2)nc1)c1ccnn1C (configuration not stated)	-0.7424%	-1.34%	0.1272%	3.788%	8.173%
Cc1ccc(N2CC[C@H]3C[C@H](C(=O)NCc4ccco4)O[C@@H]3C2)cc1	1.684%	5.425%	2.343%	-38.94%	11.43%
Fc1cccnc1O[C@@H]1CC[C@H]2[C@H]1OCCN2Cc1nccs1	0.8137%	4.093%	3.583%	-1.816%	6.863%
O=C(N[C@@H]1CNCCC[C@H]1O)c1ccc(OCCN2CCCC2)cc1	-4.443%	1.798%	-1.129%	1.999%	5.941%
COC(=O)CNC(=O)C12CCC(=O)N1c1cc(Cl)ccc1S2 (configuration not stated)	-6.341%	1.745%	-1.21%	-3.887%	5.028%
O=C(CC[C@@H]1CCCN2CCCC[C@H]12)NCCc1cc(O)ncn1	1.71%	4.251%	5.144%	7.653%	1.571%
Cn1ccnc1CN1CCC2(CC(=O)N(c3cccc(F)c3)C2)C1 (configuration not stated)	-1.654%	-0.7846%	2.408%	-19.71%	3.261%
CN1CCCC(Cc2cncc(C(=O)NCC3CC3)c2)C1 (configuration not stated)	0.7525%	6.889%	-3.333%	-0.5551%	1.622%
Cc1ccc(NCc2ncc(C(C)(C)C)o2)c(Cl)c1	-2.259%	7.075%	-0.3165%	-0.06558%	6.404%
Cc1cc(C(=O)N2CC[C@@H]3CN(c4ncccn4)CCO[C@@H]3C2)c(C)o1	6.888%	4.366%	0.2571%	8.945%	12.71%
CCc1nc(CC)n(CC(=O)NCc2cccc(C)c2)n1	0.144%	-1.927%	1.699%	-3.75%	9.901%
Cc1cc2cc(CNC3CCN(S(C)(=O)=O)CC3)oc2cc1C	-6.295%	1.073%	-	-0.8062%	11.69%
CC(C)(C)C(=O)N1CCCC1c1nc(O)cc(-c2ccccn2)n1 (configuration not stated)	-1.923%	2.044%	3.056%	5.65%	-10.27%
CCN(CC)C(=O)C1CCC(=O)N(CCc2cccc(F)c2)C1 (configuration not stated)	-2.312%	-2.255%	-1.242%	-13.13%	1.538%
O=C(Nc1cc(-n2cccc2)ccc1F)N1CCCC1	1.556%	3.72%	-0.5894%	-12.77%	10.34%
CC(=O)N1CCC(NCc2cccnc2N(C)Cc2ccccc2)CC1	-2.342%	2.082%	-1.353%	-10.37%	1.149%
CN1CCC(c2n[nH]c3ncccc23)C1 (configuration not stated)	-6.275%	1.033%	6.057%	-4.903%	9.125%
COc1cc(C(C)=O)ccc1OCC(=O)N(CC(C)C#N)C1CC1 (configuration not stated)	-0.5482%	4.855%	-7.09%	-6.884%	2.062%
COc1ccc(CC(=O)NC(C)c2nc3cccnc3n2C(C)C)cc1 (configuration not stated)	-2.51%	1.2%	2.596%	3.585%	8.365%
CN1CCCc2cc(NC(=O)N3CCOC(C(N)=O)C3)ccc21 (configuration not stated)	-0.9046%	2.893%	-4.086%	-0.03058%	-0.8264%
N#Cc1nccnc1NC1CCN(c2ccccc2OC(F)F)C1 (configuration not stated)	-3.3%	5.811%	1.789%	7.969%	2.941%
Cc1occc1C(=O)N1CCC2(CCN(Cc3ccccn3)C2=O)C1 (configuration not stated)	5.241%	4.188%	0.1616%	-19.13%	8.04%
O=S(=O)(Cc1ccccc1F)NCCN1CCOCC1	1.776%	1.268%	0%	2.67%	2.075%
COc1ccc(Cc2nnc(NC(=O)C3CC34CCC4)s2)cc1OC (configuration not stated)	1.501%	1.306%	4.6%	-10.07%	1.13%
CN1CC(C(=O)NCCc2ccc(F)c(Br)c2)CC1=O (configuration not stated)	-0.153%	2.052%	0.3764%	-0.999%	6.468%
OCC1CCCN1c1cc(NCCNc2ccccn2)ncn1 (configuration not stated)	-2.21%	1.913%	-2.772%	-1.015%	3.306%

Some entries from above, unchanged:

| SMILES | MtTrpRS | PfKRS1 | CoaBC | ClpP1P2 | TcHisRS |
|---|---|---|---|---|---|
| `CN1CC(C(=O)NCCc2ccc(F)c(Br)c2)CC1=O` (configuration not stated) | -0.153% | 2.052% | 0.3764% | -0.999% | 6.468% |
| `CCN(CC)C(=O)C1CCC(=O)N(CCc2cccc(F)c2)C1` (configuration not stated) | -2.312% | -2.255% | -1.242% | -13.13% | 1.538% |